From ChEMBL document CHEMBL1250449, “Aminoglycoside activity observed on single pre-translocation ribosome complexes” (Nat Chem Biol, 2010)

Assays:
Format in all cases: nucleic-acid assay
Conditions in all cases: MRE600
[1] = test system: Nucleic Acid; assay: Binding affinity to Escherichia coli 16S rRNA helix 44 assessed as tRNA translocation rate
[2] = test system: Nucleic Acid; assay: Binding affinity to Escherichia coli 23S rRNA G2553C mutant assessed as increase in classical-state occupancy by tRNA at 20 uM by smFRET
[3] = test system: Nucleic Acid; assay: Binding affinity to Escherichia coli 16S rRNA helix 44 assessed as classical-state occupancy by tRNA; set-up: concentration or dose not given beside the values
[4] = test system: Nucleic Acid; assay: Binding affinity to Escherichia coli 23S rRNA assessed as increase in classical-state occupancy by tRNA at 20 uM by smFRET

SMILES: CNC1C(O)C(OC2C(N)CC(N)C(OC3OC(CN)CCC3N)C2O)OCC1(C)O (centres undefined)
- Activity [1]: 0.42 s⁻¹
- Activity [2]: 18%
- Activity [3]: 67.2%
- Activity [4]: 5%
